From PMC11006775 come the findings set out here.

The target of the experiment is T1, sperm acrosome membrane-associated protein 1 (SPACA1) (mouse (endogenous in cauda epididymis)) (UniProt Q9DA48).
T1 sequence: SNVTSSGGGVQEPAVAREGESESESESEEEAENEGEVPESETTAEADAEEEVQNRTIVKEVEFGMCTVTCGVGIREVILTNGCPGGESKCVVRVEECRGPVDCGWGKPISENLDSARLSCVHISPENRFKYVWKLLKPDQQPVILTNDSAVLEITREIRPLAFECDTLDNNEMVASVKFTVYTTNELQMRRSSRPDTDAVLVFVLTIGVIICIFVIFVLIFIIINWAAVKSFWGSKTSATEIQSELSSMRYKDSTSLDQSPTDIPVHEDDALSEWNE
As to the kind of experiment: co-IP; cauda epididymal extracts in NP-40 lysis buffer (50 mM Tris, 150 mM NaCl, 0.5% NP-40, pH 7.5); immunoprecipitation with anti-SPACA1 antibody overnight at 4 °C, Protein A/G beads, rabbit IgG as negative control; western blotting. In general terms: Immunoblotting shows a protein as a band on a membrane.

These are yes or no findings as the source states them, for the method shown. Binding seen in cells or lysates may run through a third protein. A result given as binding can be weak or reduced; the word gives no strength.

With “CCDC28A (coiled-coil domain containing 28A)”, the binding result was “binds”.
